# Measurements published in the supplement of paper PMC4683952.
# The other results are listed elsewhere or left out. Rule as the data show it: active = 2 or more and inactive = the rest. Single values are uncertain here, since repeats match poorly.
# Tested on: Lgr5 (MarsCy1-Lgr5-EGFP, U2OS)
# Assay: cell-surface Lgr5 expression (SCi1 fluorescence, background-subtracted) relative to WT DMSO (fold of DMSO control); higher = more Lgr5 at the plasma membrane
# Conditions: U2OS MarsCy1-Lgr5-EGFP stable; treatment time: overnight; library: ActiProbe-5K (TimTec); 25 µM
row,Compound,cell-surface Lgr5 expression
1,O=C1CCCN1S(=O)(=O)c1ccc(Br)s1,inactive: 1.17
2,O=c1ccc2cc(S(=O)(=O)NCC3CCCO3)ccc2o1 (centres undefined),inactive: 1.02
3,c1ccc(CSc2nc3cccnc3[nH]2)nc1,inactive: 0.906
4,O=c1c2ccccc2nc2ccccn12,inactive: 1.12
5,C#CC[N+](C)(C)CC(=O)c1cccc2ccccc12.[Br-],inactive: 1.54
6,Nc1cc(N)nc(SCc2ccc(Cl)c(Cl)c2)n1,inactive: 0.999
7,COc1ccc(C2Oc3ccccc3C3CC(c4ccccc4)=NN32)cc1 (centres undefined),inactive: 0.736
8,CC(C)(C)C(=O)CC1(O)Sc2ccccc2N=C1/C=C(/O)C(C)(C)C (centres undefined),inactive: 0.856
9,CN(c1nc(N2CCOCC2)nc(N2CCOCC2)n1)n1cccc1,inactive: 1.01
10,OCCN(CCO)CC(O)C12CC3CC(CC(C3)C1)C2 (centres undefined),inactive: 1.15
11,Cc1nc(CN2CCN(Cc3csc(C)n3)CC2)cs1,inactive: 1.15
12,CC(=O)C(C)Sc1nc2c(c(C(F)(F)F)c1C#N)CCCCCC2 (centres undefined),inactive: 1.24
13,C1=CN(c2ccccc2)C(/C=N\Cc2ccccc2)=CS1,inactive: 0.967
14,O=[N+]([O-])c1ccc2c(c1)ncn2C1CCCCC1,inactive: 0.888
15,CSc1ccc(/C=N\n2c(S)nnc2-c2ccccc2)cc1,inactive: 0.969
16,Fc1ccc(NC(=S)Nc2cccc3ccccc23)cc1,inactive: 0.917
17,Cc1c(CNc2[nH]ncc2[N+](=O)[O-])cnn1C,inactive: 1.21
18,Cc1nc2ccccc2[nH]/c1=N\O,inactive: 1.05
19,Nc1n[nH]c(CC(=O)O)n1,inactive: 1.14
20,Cc1ccc(/C=N/n2c(C)nnc2C)o1,inactive: 1.34
21,Nc1nc2c(nc(N3CCOCC3)n2C2OC(CO)C(O)C2O)c(=O)[nH]1 (centres undefined),inactive: 0.999
22,C/C(=N/O)c1no[n+]([O-])c1/C(C)=N\O,inactive: 1.32
23,N#Cc1c(NC(=O)C(F)(F)F)sc2c1CCC2,inactive: 1.07
24,Fc1ccccc1OCCSc1nc2ccccc2o1,inactive: 1.07
25,Oc1nc(/C=C\c2ccc(Br)cc2)cc(/C=C\c2ccc(Br)cc2)n1,inactive: 0.407
26,C=CCNc1sc(N)c(C#N)c1C(=O)c1ccc(Br)s1,inactive: 1.24
27,Cc1ccc(C2=NNC(C(O)C(O)C(O)CO)S2)cc1 (centres undefined),inactive: 0.985
28,c1ccc(CSc2nn3c(SCc4ccccn4)nnc3s2)nc1,inactive: 1.03
29,CN(C)c1ccc(/C=N\c2ccc(S(N)(=O)=O)cc2)cc1,inactive: 1.28

# From entry 1 up to 2, copied from above:
row,Compound,cell-surface Lgr5 expression
1,O=C1CCCN1S(=O)(=O)c1ccc(Br)s1,inactive: 1.17
2,O=c1ccc2cc(S(=O)(=O)NCC3CCCO3)ccc2o1 (centres undefined),inactive: 1.02
